Where two headings read alike, the source gives them in different places. The match of structure and compound is tentative.
Experiments:
[1] = molecular target: K-Ras G12C(GMP-PNP) binding to BRAF RBD (Homo sapiens (Human), UniProt P01116+P62937, G12C); experiment: Disruption of BRAF RBD interaction with K-Ras (FRET / MOA assay), K-Ras G12C; type: biochemical; conditions: read-out: KRAS G12C FRET IC50
[2] = test system: K-Ras G12C (NCI-H358 cells); experiment: Potency assay: pERK in NCI-H358 cells; type: cell-based, human; conditions: read-out: pERK EC50 (H358 KRAS G12C), 4 hours
NCI-H358 (K-Ras G12C) = experiment: CellTiter-Glo cell viability assay, NCI-H358; type: cell-based, human; conditions: read-out: H358 Cell Viability assay data (K-Ras G12C, IC50); 5-day treatment
KRAS G12C = KRAS G12C (Homo sapiens (Human), UniProt P01116+P62937, G12C); experiment: Ras-Raf disruption/FRET/MOA assay (BRAF RBD, Cyclophilin A); type: biochemical
KRAS G13C = KRAS G13C (Homo sapiens (Human), UniProt P01116+P62937, G13C); experiment: as above; type: biochemical
KRAS Q61H = KRAS Q61H (Homo sapiens (Human), UniProt P01116+P62937, Q61H); experiment: as above; type: biochemical; conditions: read-out: KRAS Q61H FRET IC50
KRAS G12S = KRAS G12S (Homo sapiens (Human), UniProt P01116+P62937, G12S); experiment: as above; type: biochemical; conditions: read-out: KRAS G12S FRET IC50
[3] = test system: Capan-1 cells (K-Ras G12V); experiment: CellTiter-Glo cell viability, Capan-1; type: cell-based, human; conditions: read-out: Capan-1 Cell Viability IC50, 5-day treatment
KRAS G12V = KRAS G12V (Homo sapiens (Human), UniProt P01116+P62937, G12V); experiment: Ras-Raf disruption/FRET/MOA assay (BRAF RBD, Cyclophilin A); type: biochemical
KRAS G12D = KRAS G12D (Homo sapiens (Human), UniProt P01116+P62937, G12D); experiment: as above; type: biochemical
[4] = test system: NCI-H358 cells (K-Ras G12C); experiment: CellTiter-Glo cell viability, NCI-H358; type: cell-based, human; conditions: read-out: H358 Cell Viability IC50
[5] = molecular target: KRAS WT binding to BRAF RBD (Homo sapiens (Human), UniProt P01116+P62937); experiment: Ras-Raf disruption/FRET/MOA assay, KRAS WT; type: biochemical; conditions: read-out: KRAS WT FRET IC50
[6] = molecular target: KRAS G12S binding to BRAF RBD (Homo sapiens (Human), UniProt P01116+P62937, G12S); experiment: Ras-Raf disruption/FRET/MOA assay, KRAS G12S; type: biochemical; conditions: read-out: KRAS G12S FRET IC50
[7] = test system: AsPC-1 cells (K-Ras G12D); experiment: Potency assay: pERK, AsPC-1; type: cell-based; conditions: read-out: ASPC-1 pERK EC50
[8] = test system: Capan-1 cells (K-Ras G12V); experiment: Potency assay: pERK, Capan-1; type: cell-based; conditions: read-out: Capan-1 pERK EC50
[9] = test system: NCI-H358 cells (K-Ras G12C); experiment: Potency assay: pERK, NCI-H358; type: cell-based; conditions: read-out: H358 pERK EC50
KRAS G13D = KRAS G13D (Homo sapiens (Human), UniProt P01116+P62937, G13D); experiment: Ras-Raf disruption/FRET/MOA assay (BRAF RBD, Cyclophilin A); type: biochemical; conditions: read-out: FRET G13D IC50
[10] = molecular target: KRAS G12V binding to BRAF RBD (Homo sapiens (Human), UniProt P01116+P62937, G12V); experiment: Ras-Raf disruption/FRET/MOA assay, KRAS G12V; type: biochemical; conditions: read-out: KRAS G12V FRET IC50

Sequences of proteins named here, by UniProt entry; tags and fusion partners are left off. A change or cut given only in a name is not applied to a line headed by its entry. A line that says so, or that is headed by a name, gives the form on record, which may keep a tag or linker. Residues count along the entry.
UniProt P01116, 1-169 isoform 2 G12C limits assumed: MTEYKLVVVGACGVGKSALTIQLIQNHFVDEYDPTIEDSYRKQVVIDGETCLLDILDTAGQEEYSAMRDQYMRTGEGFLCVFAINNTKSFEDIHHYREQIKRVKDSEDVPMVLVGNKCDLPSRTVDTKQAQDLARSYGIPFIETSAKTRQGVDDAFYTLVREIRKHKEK
UniProt P01116, 1-164 with tags or gaps G12D limits assumed: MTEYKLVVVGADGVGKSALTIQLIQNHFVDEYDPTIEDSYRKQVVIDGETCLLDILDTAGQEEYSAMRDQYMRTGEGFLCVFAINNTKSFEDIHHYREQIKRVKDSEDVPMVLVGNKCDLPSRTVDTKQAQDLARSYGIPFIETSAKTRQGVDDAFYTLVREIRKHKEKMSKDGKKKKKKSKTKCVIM
UniProt P01116, 1-164 with tags or gaps G13C limits assumed: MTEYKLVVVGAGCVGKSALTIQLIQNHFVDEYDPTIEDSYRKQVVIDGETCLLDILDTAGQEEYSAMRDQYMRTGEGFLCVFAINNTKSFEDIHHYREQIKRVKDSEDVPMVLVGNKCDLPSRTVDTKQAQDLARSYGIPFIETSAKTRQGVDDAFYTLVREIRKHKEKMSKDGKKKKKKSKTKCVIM
UniProt P01116, 1-164 with tags or gaps G12S limits assumed: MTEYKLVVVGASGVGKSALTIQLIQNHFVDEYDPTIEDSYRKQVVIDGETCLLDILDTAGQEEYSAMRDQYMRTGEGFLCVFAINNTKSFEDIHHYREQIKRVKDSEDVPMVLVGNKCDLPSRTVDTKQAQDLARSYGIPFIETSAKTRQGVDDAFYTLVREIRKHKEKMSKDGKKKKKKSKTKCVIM
UniProt P01116, 1-164 with tags or gaps G12V limits assumed: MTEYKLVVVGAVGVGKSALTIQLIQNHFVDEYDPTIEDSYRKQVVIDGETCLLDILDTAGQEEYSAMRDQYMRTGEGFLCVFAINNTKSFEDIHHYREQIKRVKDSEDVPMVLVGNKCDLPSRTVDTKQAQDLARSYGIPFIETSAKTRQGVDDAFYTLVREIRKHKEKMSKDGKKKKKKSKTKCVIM
UniProt P01116, 1-164 with tags or gaps G12C limits assumed: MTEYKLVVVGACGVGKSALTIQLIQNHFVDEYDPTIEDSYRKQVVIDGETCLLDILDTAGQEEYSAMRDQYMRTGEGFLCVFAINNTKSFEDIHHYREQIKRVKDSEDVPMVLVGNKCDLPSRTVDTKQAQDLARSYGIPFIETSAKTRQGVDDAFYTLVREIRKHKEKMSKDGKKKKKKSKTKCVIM
UniProt P01116, 1-164 with tags or gaps Q61H limits assumed: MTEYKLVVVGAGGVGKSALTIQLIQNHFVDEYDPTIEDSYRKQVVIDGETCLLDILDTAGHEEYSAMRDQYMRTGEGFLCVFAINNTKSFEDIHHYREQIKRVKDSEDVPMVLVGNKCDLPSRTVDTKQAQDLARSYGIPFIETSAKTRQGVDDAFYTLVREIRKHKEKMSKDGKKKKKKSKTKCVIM
UniProt P01116, 1-164 with tags or gaps limits assumed: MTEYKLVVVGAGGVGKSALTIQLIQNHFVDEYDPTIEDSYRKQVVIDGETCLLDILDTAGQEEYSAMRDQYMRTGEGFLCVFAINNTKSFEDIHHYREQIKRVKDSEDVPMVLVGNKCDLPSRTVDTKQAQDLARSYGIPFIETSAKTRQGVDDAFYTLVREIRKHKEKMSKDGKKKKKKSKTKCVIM
UniProt P01116, 1-164 with tags or gaps G13D limits assumed: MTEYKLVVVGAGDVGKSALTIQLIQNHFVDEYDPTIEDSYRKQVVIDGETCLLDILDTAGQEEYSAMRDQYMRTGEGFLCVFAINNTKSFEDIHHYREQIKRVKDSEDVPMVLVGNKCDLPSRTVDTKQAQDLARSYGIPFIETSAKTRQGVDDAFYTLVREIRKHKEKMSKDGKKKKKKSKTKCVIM
UniProt P62937, whole entry: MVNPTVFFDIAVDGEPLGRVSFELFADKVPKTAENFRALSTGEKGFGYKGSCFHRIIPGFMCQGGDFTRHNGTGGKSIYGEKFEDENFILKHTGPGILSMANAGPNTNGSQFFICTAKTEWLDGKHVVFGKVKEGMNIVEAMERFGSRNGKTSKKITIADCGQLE

Structure (SMILES)	IC50 [1] [nM]	EC50 [2] [nM]	IC50 (NCI-H358 (K-Ras G12C)) [nM]	IC50 (KRAS G12C; read-out: KRAS G12C FRET IC50) [nM]	IC50 (KRAS G13C; read-out: KRAS G13C FRET IC50) [nM]	IC50 (KRAS Q61H) [nM]	IC50 (KRAS G12S) [nM]	IC50 [3] [nM]	IC50 (KRAS G12V; read-out: KRAS G12V FRET IC50) [nM]	IC50 (KRAS G12D; read-out: KRAS G12D FRET IC50) [nM]	IC50 ([4]; K-Ras G12C, 5-day treatment) [nM]	further results
C=CC(=O)N1CC[C@H](C(=O)N(C)[C@H](C(=O)N[C@H]2Cc3cc(N)cc(c3)-c3ccc4c(c3)c(c(-c3ccccc3COC)n4CC)CC(C)(C)COC(=O)[C@@H]3CCCN(N3)C2=O)C(C)C)C1 [A042]	100 to 1000											
CCn1c(-c2cccnc2[C@H](C)OC)c2c3cc(ccc31)-c1csc(n1)C[C@H](NC(=O)[C@H](C(C)C)N(C)C(=O)N1C[C@@H]3CN(C)C[C@@H]31)C(=O)N1CCC[C@H](N1)C(=O)OCC(C)(C)C2		< 5000	< 10	1000 to 10000	1000 to 10000	1000 to 10000	1000 to 10000	> 10000				
CCn1c(-c2cnccc2COC)c2c3cc(ccc31)-c1cc(O)cc(c1)C[C@H](NC(=O)[C@H](C(C)C)N(C)C(=O)c1ncco1)C(=O)N1CCC[C@H](N1)C(=O)OCC(C)(C)C2		< 5000	< 10	100 to 1000	1000 to 10000	10 to 100	100 to 1000		100 to 1000	1000 to 10000	1000 to 10000	
C=CC(=O)N1CC[C@H](C(=O)N(C)[C@H](C(=O)N[C@H]2Cc3cc(O)cc(c3)-c3ccc4c(c3)c(c(-c3cccnc3COC)n4CC#N)CC(C)(C)COC(=O)[C@@H]3CCCN(N3)C2=O)C(C)C)C1	10 to 100											
C=CC(=O)N1CC[C@H](C(=O)N(C)[C@H](C(=O)N[C@H]2Cc3cc(OC(=O)N(C)CC(=O)O)cc(c3)-c3ccc4c(c3)c(c(-c3ccccc3CCOC)n4CC)CC(C)(C)COC(=O)[C@@H]3CCCN(N3)C2=O)C(C)C)C1 [Compound A78]	100 to 1000											
C=CC(=O)N1CC[C@H](C(=O)N(C)[C@H](C(=O)N[C@H]2Cc3cccc(c3)-c3ccc4c(c3)c(c(-c3cccnc3[C@H](C)OC)n4CC)CC(C)(C)COC(=O)[C@@H]3CCCN(N3)C2=O)C(C)C)[C@@H]1C			> 10000									
C=CC(=O)N1CCC(F)(C(=O)N(C)[C@H](C(=O)N[C@H]2Cc3cc(O)cc(c3)-c3ccc4c(c3)c(c(-c3ccccc3CCOC)n4CC)CC(C)(C)COC(=O)[C@@H]3CCCN(N3)C2=O)C(C)C)CC1	100 to 1000											
C=CC(=O)N1CC[C@H](C(=O)N(C)[C@H](C(=O)N[C@H]2Cc3cc(O)cc(c3)-c3ccc4c(c3)c(c(-c3ccc(C5CCN(C)CC5)nc3)n4CC)CC(C)(C)COC(=O)[C@@H]3CCCN(N3)C2=O)C(C)C)C1	100 to 1000											
CCn1c(-c2cccnc2[C@H](C)OC)c2c3cc(ccc31)-c1csc(n1)C[C@H](NC(=O)[C@H](C(C)C)N(C)C(=O)N1CCC3(CC1)CN(C)CCO3)C(=O)N1CCC[C@H](N1)C(=O)OCC(C)(C)C2		< 5000	10 to 100	100 to 1000	100 to 1000	100 to 1000	100 to 1000	10 to 100	100 to 1000	1000 to 10000	10 to 100	IC50 [5]: 10 to 100 nM; IC50 [6]: 10 to 100 nM
CCn1c(-c2cccnc2[C@H](C)OC)c2c3cc(ccc31)-c1cc(O)cc(c1)C[C@H](NC(=O)CCc1ccncc1)C(=O)N1CCC[C@H](N1)C(=O)OCC(C)(C)C2	100 to 1000	< 5000	100 to 1000	1000 to 10000	100 to 1000	100 to 1000	1000 to 10000	> 10000	1000 to 10000	1000 to 10000		
CCn1c(-c2cccnc2[C@H](C)OC)c2c3cc(ccc31)-c1csc(n1)C[C@H](NC(=O)[C@H](C(C)C)N1CCC3(CN(C(=O)OC)C3)C1=O)C(=O)N1CCC[C@H](N1)C(=O)OCC(C)(C)C2					1000 to 10000							
CCn1c(-c2cccnc2[C@H](C)OC)c2c3cc(ccc31)-c1cc(O)cc(c1)C[C@H](NC(=O)[C@H](C(C)C)N(C)C(C)=O)C(=O)N1CCC[C@H](N1)C(=O)OCC(C)(C)C2		< 5000	100 to 1000	100 to 1000	10 to 100	10 to 100	100 to 1000	100 to 1000	100 to 1000	1000 to 10000	100 to 1000	EC50 [7]: 706 nM; EC50 [8]: 52 nM; EC50 [9]: 64 nM; IC50 (KRAS G12V; read-out: FRET G12V IC50): 197 nM; IC50 (KRAS G12C; read-out: FRET G12C IC50): 128 nM; IC50 (KRAS G12D; read-out: FRET G12D IC50): 1290 nM; IC50 (KRAS G13C; read-out: FRET G13C IC50): 97 nM; IC50 (KRAS G13D): 235 nM; IC50 [4]: 226 nM
CCn1c(-c2cccnc2[C@H](C)OC)c2c3cc(ccc31)-c1csc(n1)C[C@H](NC(=O)[C@H](C(C)C)N(C)C(=O)N1CCO[C@H](C)C1)C(=O)N1CCC[C@H](N1)C(=O)OCC(C)(C)C2		< 5000	10 to 100	10 to 100	100 to 1000	10 to 100	100 to 1000	10 to 100	100 to 1000	100 to 1000	< 10	
C=CC(=O)N1CC[C@H](C(=O)N(C)[C@H](C(=O)N[C@H]2Cc3cc(O)cc(c3)-c3ccc4c(c3)c(c(-c3ccccc3COC)n4CC)CC(C)(C)COC(=O)[C@@H]3CCCN(N3)C2=O)C2CCCC2)C1	10 to 100											
CCn1c(-c2cccnc2[C@H](C)OC)c2c3cc(ccc31)-c1csc(n1)C[C@H](NC(=O)[C@H](C(C)C)N(C)C(=O)[C@H]1CCN(C(=O)C#CCN3CCOCC3)C1)C(=O)N1CCC[C@H](N1)C(=O)OCC(C)(C)C2								> 10000				
CCn1c(-c2cccnc2[C@H](C)OC)c2c3cc(ccc31)-c1csc(n1)C[C@H](NC(=O)[C@H](C(C)C)N(C)C(=O)N1C[C@@H](C)N(C)C[C@H]1C)C(=O)N1CCC[C@H](N1)C(=O)OCC(C)(C)C2	> 10000		> 10000	100 to 1000	100 to 1000	100 to 1000	100 to 1000	10 to 100	100 to 1000	1000 to 10000	10 to 100	
CCn1c(-c2cccnc2[C@H](C)OC)c2c3cc(ccc31)-c1csc(n1)C[C@H](NC(=O)[C@H](C(C)C)N(C)C(=O)[C@H]1OCC[C@H]1c1ccccc1)C(=O)N1CCC[C@H](N1)C(=O)OCC(C)(C)C2			> 10000	1000 to 10000	1000 to 10000		1000 to 10000		1000 to 10000	1000 to 10000		
CCn1c(-c2cccnc2[C@H](C)OC)c2c3cc(ccc31)-c1csc(n1)C[C@H](NC(=O)[C@H](C(C)C)N(C)C(=O)N1CC[C@H]1C)C(=O)N1CCC[C@H](N1)C(=O)OCC(C)(C)C2	10 to 100	< 5000	10 to 100	100 to 1000	1000 to 10000	100 to 1000	1000 to 10000	100 to 1000	1000 to 10000	1000 to 10000	10 to 100	IC50 [10]: 10 to 100 nM
CCn1c(-c2cccnc2[C@H](C)OC)c2c3cc(ccc31)-c1csc(n1)C[C@H](NC(=O)[C@H](C(C)C)N(C)C(=O)N1CC(NS(C)(=O)=O)C1)C(=O)N1CCC[C@H](N1)C(=O)OCC(C)(C)C2	10 to 100	< 5000	< 10	10 to 100	100 to 1000	10 to 100	100 to 1000	100 to 1000	100 to 1000	100 to 1000	10 to 100	
CCn1c(-c2cccnc2[C@H](C)OC)c2c3cc(ccc31)-c1cc(O)cc(c1)C[C@H](NC(=O)[C@H](C(C)C)N(C)C(=O)[C@H]1C[C@H](O)C1)C(=O)N1CCC[C@H](N1)C(=O)OCC(C)(C)C2				10 to 100						100 to 1000		
CCOC(=O)N1CC[C@H](C(=O)N(C)[C@H](C(=O)N[C@H]2Cc3cc(O)cc(c3)-c3ccc4c(c3)c(c(-c3cccnc3[C@H](C)OC)n4CC)CC(C)(C)COC(=O)[C@@H]3CCCN(N3)C2=O)C(C)C)C1				10 to 100						100 to 1000		
